The supplement of paper PMC7666118
Some of the results follow.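 Rule for the calls: active = dose-dependent thermal stabilisation significant by F-test of dose-response against flat model at 10% FDR; inactive = not significant.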

Chains of the proteins cited; added tags and fusions are not shown. Lines headed by an entry give the natural chain unless they say otherwise; changes in a name come on top.
UniProt Q3LIE5: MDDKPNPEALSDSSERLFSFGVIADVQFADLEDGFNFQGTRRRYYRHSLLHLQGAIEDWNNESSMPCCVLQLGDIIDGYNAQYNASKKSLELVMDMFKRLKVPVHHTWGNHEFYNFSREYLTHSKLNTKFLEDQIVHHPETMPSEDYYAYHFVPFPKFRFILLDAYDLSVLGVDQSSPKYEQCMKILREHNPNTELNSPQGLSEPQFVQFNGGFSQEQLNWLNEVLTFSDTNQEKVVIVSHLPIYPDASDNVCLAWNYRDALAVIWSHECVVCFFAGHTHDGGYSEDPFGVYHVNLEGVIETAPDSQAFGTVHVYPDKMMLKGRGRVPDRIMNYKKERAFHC
UniProt Q2M2I8: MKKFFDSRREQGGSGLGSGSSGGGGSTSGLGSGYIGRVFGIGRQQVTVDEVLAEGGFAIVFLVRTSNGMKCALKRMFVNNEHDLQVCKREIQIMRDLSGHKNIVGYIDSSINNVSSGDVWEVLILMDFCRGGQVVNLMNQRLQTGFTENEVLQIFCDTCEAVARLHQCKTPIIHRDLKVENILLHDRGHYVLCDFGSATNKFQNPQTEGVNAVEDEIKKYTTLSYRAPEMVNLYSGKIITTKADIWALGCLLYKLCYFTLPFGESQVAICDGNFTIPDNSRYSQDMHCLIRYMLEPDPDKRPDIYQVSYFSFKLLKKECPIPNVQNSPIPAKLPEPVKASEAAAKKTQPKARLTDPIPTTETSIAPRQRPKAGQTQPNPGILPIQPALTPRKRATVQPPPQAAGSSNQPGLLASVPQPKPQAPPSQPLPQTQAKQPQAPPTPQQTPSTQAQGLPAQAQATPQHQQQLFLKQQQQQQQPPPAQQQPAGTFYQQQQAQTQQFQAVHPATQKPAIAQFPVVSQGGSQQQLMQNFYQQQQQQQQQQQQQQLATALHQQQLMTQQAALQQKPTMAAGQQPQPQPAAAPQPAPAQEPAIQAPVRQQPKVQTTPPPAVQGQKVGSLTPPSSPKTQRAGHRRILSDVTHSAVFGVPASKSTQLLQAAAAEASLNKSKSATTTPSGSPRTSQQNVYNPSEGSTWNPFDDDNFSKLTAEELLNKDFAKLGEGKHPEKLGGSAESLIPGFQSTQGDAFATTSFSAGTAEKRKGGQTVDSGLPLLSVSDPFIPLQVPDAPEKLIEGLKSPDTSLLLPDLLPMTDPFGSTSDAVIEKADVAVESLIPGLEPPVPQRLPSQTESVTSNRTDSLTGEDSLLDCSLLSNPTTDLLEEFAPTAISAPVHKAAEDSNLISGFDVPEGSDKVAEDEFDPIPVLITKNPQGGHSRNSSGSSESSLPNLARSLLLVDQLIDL
UniProt Q6DHV7: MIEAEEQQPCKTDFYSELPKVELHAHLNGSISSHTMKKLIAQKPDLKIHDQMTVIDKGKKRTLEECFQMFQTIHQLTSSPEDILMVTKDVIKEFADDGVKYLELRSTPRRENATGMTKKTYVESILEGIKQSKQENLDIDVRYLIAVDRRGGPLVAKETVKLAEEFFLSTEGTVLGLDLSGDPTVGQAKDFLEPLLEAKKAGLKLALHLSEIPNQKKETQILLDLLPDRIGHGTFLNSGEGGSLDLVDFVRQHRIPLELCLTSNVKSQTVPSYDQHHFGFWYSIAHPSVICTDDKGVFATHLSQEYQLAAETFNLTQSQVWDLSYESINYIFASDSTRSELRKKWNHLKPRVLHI
UniProt Q0VD83: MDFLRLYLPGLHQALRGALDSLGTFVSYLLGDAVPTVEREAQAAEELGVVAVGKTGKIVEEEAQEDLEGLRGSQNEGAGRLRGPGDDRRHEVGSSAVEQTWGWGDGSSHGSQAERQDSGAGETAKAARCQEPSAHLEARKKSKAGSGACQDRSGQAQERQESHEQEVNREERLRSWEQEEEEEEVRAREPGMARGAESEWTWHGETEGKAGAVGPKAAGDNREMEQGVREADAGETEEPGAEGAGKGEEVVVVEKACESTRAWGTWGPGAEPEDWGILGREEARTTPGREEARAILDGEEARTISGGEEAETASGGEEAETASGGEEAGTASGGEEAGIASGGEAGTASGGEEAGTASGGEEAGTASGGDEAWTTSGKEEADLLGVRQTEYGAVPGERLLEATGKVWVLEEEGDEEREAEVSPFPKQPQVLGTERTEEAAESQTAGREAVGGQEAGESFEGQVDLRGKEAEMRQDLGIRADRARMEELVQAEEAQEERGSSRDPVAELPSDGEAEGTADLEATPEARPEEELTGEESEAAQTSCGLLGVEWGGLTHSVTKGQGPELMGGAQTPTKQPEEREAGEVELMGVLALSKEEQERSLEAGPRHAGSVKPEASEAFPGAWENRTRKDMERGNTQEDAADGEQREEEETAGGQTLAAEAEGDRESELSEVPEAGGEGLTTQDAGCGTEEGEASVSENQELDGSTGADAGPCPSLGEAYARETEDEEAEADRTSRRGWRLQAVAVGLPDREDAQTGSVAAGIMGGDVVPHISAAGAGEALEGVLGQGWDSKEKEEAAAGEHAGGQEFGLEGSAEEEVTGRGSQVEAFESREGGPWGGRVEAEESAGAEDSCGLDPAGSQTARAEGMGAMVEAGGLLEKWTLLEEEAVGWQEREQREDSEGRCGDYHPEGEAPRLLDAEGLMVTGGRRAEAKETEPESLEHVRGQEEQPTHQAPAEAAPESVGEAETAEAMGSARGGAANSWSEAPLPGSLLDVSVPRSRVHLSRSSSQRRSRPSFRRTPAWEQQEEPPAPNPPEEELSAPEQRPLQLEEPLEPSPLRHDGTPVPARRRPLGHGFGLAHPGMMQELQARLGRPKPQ
UniProt Q9UJX3, whole entry: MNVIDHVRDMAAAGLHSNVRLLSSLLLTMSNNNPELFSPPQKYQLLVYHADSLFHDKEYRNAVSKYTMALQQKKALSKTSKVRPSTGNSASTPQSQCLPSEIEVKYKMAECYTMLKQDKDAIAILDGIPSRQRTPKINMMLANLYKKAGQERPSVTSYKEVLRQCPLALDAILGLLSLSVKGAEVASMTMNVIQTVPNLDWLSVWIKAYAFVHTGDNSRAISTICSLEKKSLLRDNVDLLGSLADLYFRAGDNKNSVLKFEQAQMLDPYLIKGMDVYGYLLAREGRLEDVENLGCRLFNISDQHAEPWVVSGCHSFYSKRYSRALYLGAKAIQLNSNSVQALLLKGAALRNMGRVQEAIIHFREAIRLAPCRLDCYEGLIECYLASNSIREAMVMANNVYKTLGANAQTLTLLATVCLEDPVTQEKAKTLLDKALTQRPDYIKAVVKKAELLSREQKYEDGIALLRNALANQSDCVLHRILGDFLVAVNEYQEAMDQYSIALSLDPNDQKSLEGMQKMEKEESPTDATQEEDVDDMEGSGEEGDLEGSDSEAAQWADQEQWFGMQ
UniProt Q9BQE5: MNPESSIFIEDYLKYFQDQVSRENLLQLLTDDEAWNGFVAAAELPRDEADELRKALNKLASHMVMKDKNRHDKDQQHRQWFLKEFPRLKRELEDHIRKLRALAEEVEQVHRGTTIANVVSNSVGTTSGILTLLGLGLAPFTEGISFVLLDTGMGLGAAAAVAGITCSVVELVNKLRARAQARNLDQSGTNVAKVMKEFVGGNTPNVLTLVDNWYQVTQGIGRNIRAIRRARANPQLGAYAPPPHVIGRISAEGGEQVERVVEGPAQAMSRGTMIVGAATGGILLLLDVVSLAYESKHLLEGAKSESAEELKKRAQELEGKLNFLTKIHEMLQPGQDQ
UniProt P49748: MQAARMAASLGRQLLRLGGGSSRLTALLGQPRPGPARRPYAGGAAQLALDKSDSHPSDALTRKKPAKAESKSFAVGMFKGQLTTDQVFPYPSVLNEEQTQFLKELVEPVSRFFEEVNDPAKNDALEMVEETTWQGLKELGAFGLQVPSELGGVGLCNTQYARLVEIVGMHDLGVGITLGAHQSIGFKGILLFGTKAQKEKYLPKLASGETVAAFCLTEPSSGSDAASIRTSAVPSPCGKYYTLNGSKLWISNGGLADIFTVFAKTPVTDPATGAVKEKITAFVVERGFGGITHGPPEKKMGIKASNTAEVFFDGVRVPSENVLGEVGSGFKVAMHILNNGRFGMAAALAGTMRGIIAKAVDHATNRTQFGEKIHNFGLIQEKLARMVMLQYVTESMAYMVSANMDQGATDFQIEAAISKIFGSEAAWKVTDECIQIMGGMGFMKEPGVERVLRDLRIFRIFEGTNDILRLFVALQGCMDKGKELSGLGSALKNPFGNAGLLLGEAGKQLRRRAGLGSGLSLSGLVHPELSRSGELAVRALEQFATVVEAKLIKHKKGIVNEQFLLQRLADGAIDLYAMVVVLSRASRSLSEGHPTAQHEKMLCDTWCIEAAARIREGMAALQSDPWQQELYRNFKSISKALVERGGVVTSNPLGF
UniProt Q13685: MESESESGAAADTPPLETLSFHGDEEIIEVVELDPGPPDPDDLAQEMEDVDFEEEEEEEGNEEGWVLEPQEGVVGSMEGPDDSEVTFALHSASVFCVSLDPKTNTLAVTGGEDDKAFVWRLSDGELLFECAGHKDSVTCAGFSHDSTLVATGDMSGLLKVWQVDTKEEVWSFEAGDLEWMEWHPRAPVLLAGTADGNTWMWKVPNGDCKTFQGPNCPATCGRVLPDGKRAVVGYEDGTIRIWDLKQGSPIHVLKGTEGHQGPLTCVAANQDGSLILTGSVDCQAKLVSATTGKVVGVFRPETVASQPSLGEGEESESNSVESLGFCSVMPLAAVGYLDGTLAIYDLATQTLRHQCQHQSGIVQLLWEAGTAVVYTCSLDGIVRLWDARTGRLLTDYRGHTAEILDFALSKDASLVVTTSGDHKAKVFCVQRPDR
UniProt Q9Y6D6: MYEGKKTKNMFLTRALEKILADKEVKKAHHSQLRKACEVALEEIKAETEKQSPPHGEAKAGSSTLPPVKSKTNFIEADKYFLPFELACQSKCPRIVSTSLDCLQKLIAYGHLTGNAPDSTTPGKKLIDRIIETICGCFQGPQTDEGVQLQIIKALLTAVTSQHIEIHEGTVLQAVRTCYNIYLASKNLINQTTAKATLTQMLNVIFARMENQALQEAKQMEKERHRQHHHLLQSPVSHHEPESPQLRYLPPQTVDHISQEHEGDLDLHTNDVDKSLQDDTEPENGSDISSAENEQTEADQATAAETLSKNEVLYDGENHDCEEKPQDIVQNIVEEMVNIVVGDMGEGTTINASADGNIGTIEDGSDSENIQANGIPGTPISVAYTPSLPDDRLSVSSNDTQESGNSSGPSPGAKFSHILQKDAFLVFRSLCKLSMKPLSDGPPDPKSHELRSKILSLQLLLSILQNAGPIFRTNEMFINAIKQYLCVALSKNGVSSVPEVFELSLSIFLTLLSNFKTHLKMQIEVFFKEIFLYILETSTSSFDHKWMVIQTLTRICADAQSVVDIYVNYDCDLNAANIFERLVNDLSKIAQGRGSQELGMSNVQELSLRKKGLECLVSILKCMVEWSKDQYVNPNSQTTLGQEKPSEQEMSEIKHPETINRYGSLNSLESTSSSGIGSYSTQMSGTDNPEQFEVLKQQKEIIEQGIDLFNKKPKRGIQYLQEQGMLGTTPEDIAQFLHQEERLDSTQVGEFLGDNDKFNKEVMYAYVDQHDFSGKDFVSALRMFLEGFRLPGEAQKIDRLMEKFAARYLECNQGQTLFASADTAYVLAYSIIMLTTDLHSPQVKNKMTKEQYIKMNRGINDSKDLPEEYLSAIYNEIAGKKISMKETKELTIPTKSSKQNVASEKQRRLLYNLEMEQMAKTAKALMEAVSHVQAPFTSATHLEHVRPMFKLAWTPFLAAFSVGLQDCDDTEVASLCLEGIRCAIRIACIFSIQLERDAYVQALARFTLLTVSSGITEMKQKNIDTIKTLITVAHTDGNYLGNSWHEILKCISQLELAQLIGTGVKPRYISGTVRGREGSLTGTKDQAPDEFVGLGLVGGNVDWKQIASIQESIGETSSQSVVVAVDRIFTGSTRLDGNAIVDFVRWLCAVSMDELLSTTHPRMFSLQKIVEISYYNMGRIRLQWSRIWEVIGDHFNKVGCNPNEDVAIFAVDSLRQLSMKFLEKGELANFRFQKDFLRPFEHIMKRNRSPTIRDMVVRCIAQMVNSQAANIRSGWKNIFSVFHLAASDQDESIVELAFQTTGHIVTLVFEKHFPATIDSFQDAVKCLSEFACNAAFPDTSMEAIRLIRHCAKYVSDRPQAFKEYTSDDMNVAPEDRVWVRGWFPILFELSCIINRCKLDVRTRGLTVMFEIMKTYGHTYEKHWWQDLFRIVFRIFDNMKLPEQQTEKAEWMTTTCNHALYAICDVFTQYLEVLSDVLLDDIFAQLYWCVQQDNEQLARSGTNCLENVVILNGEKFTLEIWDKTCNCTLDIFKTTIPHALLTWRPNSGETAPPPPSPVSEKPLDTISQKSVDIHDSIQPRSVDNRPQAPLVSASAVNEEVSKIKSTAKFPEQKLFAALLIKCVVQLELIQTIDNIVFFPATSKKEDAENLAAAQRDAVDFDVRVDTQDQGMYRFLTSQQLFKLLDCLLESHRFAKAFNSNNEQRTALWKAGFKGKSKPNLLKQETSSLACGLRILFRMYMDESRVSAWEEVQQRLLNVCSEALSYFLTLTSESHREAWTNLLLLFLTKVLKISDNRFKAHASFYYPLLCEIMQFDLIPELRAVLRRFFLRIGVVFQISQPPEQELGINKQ

Compound: Nc1nc2c(ncn2[C@@H]2O[C@H](COP(=O)(O)OP(=O)(O)OP(=O)(O)O)[C@@H](O)[C@H]2O)c(=O)[nH]1
Test: dose-dependent thermal stabilisation call (2D-TPP, DLPTP, 10% FDR) (binary (1 = stabilised)); higher = stabilised by the compound
Details: system: Jurkat gel-filtered lysate; concentration range 1-500 µM

Row | Target | dose-dependent thermal stabilisation call
1 | ADPRM (UniProt Q3LIE5) | inactive: 0
2 | AAK1 (UniProt Q2M2I8) | inactive: 0
3 | ADAL (UniProt Q6DHV7) | active: 1
4 | APOBR (UniProt Q0VD83) | inactive: 0
5 | ANAPC7 (UniProt Q9UJX3) | inactive: 0
6 | APOL2 (UniProt Q9BQE5) | inactive: 0
7 | ACADVL (UniProt P49748) | inactive: 0
8 | AAMP (UniProt Q13685) | inactive: 0
9 | ARFGEF1 (UniProt Q9Y6D6) | inactive: 0

Two records drawn at random from those above:
Row | Target | dose-dependent thermal stabilisation call
1 | ADPRM (UniProt Q3LIE5) | inactive: 0
6 | APOL2 (UniProt Q9BQE5) | inactive: 0
